Our source for the binding values is patent US20020123042A1.

Protein sequences, listed by entry. Tags and fused reporters are not part of them. Lines headed by an entry give the natural chain unless they say otherwise; changes in a name come on top.
UniProt O43683: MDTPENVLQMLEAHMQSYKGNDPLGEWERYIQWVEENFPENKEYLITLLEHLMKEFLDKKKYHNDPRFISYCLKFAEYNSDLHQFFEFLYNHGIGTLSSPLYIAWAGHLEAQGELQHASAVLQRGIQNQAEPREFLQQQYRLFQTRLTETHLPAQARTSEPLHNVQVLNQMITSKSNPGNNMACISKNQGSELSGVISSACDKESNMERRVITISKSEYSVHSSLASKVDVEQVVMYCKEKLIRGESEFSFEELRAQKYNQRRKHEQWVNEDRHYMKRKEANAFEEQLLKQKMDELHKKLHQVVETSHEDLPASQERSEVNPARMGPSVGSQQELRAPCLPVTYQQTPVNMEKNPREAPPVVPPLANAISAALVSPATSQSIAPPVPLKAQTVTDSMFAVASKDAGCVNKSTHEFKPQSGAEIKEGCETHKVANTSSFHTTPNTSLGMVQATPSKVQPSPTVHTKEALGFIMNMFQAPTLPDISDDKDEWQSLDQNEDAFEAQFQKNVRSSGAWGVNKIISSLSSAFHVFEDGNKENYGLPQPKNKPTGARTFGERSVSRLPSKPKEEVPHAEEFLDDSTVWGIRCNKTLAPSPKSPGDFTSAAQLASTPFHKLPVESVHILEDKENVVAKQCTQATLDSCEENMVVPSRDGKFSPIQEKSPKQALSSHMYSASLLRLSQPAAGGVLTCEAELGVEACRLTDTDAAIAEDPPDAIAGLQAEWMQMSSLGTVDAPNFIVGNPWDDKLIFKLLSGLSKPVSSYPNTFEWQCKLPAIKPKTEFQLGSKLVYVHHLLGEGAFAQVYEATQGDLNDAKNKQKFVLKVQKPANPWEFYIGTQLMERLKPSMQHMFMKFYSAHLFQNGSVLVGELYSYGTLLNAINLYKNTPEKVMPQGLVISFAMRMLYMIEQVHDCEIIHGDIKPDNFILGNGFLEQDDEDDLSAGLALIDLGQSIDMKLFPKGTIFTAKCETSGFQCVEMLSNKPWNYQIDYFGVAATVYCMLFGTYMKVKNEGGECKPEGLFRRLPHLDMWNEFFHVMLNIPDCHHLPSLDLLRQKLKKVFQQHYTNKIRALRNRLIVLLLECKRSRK
UniProt O43684: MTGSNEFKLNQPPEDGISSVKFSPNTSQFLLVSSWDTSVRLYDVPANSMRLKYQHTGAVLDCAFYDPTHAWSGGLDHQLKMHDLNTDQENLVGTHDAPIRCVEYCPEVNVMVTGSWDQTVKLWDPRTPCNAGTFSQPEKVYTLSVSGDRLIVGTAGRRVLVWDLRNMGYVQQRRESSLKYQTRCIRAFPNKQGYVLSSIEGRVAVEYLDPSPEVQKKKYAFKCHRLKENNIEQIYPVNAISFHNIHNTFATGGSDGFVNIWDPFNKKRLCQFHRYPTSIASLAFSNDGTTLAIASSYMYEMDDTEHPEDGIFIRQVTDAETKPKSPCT

No constants are given. Whether binding was seen depends on the method and setting. In cells and extracts the contact can be indirect. Some results given as binding are weak or reduced against the parent protein; the word gives no strength.

For assay [1], the target named is wild-type huBUB1 (full-length, plasmid p385-1) (human) (UniProt O43683). Put plainly: co-immunoprecipitation of in vitro translated proteins.
The target of assay [2] is full-length HA-epitope tagged huBUB1 (plasmid p396-1) (human) (UniProt O43683). Put plainly: anti-HA co-immunoprecipitation with full-length HA-BUB1.

Regarding “wild type huBUB3 (plasmid p291-2) (from UniProt O43684 1-328)”, the binding entry in assay [1] and in assay [2] was “binds” in each case.
